Data as given in PubChem BioAssay AID686943 (Drosophila RNAi Screening Center, 2013)

Purpose: 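Search across the genome for regulators of signalling from receptor tyrosine kinase to ERK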 (primary screen)
Cell system: Drosophila S2R+ haemocyte-like cells expressing YFP-tagged ERK (Rolled)
Knock-down reagent: long dsRNA against Drosophila genes
Challenge: insulin stimulation versus unstimulated cells; dose and duration not given
Read-out: 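Antibody staining for doubly phosphorylated ERK divided by ERK-YFP signal, as plate z-scores, in insulin-treated and untreated cells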
Direction: replicate 1, z-score of dpERK with insulin and replicate 2, z-score of dpERK with insulin: higher = more active ERK per ERK-YFP after insulin
The deposit covers about 23,000 reagents; this is a random part of those that have a named target and a result. 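Extra replicates exist only for a retested subset of genes; insulin dose and duration not given; both raised and lowered dpERK matter.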 The numbers tell different reagents against one gene apart. Names joined by + are all predicted targets of the reagent. Not all columns of the deposit are shown. The record does not give: the amount of reagent, the time to read-out.

After knock-down of Ice1 (Interacts with the C terminus of ELL 1) the results were replicate 1, z-score of dpERK with insulin 1.11; replicate 2, z-score of dpERK with insulin 1.78. CG15475 scored replicate 1, z-score of dpERK with insulin -0.15; replicate 2, z-score of dpERK with insulin 1.14. Depletion of Tpst (Tyrosylprotein sulfotransferase) #1 resulted in: replicate 1, z-score of dpERK with insulin 0.2; replicate 2, z-score of dpERK with insulin 1.01. Depletion of Tpst (Tyrosylprotein sulfotransferase) #2 gave: replicate 1, z-score of dpERK with insulin 0.42; replicate 2, z-score of dpERK with insulin 0.14. After knock-down of Tpst (Tyrosylprotein sulfotransferase) #3, the screen gave replicate 1, z-score of dpERK with insulin -2.28; replicate 2, z-score of dpERK with insulin -2.24. Tpst (Tyrosylprotein sulfotransferase) #4 showed replicate 1, z-score of dpERK with insulin -4.8; replicate 2, z-score of dpERK with insulin -1.11.

For Tpst (Tyrosylprotein sulfotransferase) #5 the deposit lists replicate 1, z-score of dpERK with insulin -4.9; replicate 2, z-score of dpERK with insulin -4.94. Depletion of CG14196 gave: replicate 1, z-score of dpERK with insulin 0.72; replicate 2, z-score of dpERK with insulin 1.03. CG42346 #1 gave replicate 1, z-score of dpERK with insulin 2.31; replicate 2, z-score of dpERK with insulin 0.72. With knock-down of CG42346 #2, the screen gave replicate 1, z-score of dpERK with insulin 0.12; replicate 2, z-score of dpERK with insulin -0.09.

A few values from above:
Result for CG14196 under “replicate 1, z-score of dpERK with insulin”: 0.72
Result for CG42346 #2 under “replicate 1, z-score of dpERK with insulin”: 0.12
For “replicate 2, z-score of dpERK with insulin”, CG42346 #1 reads 0.72
Under “replicate 1, z-score of dpERK with insulin”, Ice1 (Interacts with the C terminus of ELL 1) has 1.11

Further entries:
After knock-down of CG7582, the record shows replicate 1, z-score of dpERK with insulin 0.25; replicate 2, z-score of dpERK with insulin -0.03. Against Agpat4 (1-Acylglycerol-3-phosphate O-acyltransferase 4) the deposit lists replicate 1, z-score of dpERK with insulin -0.48; replicate 2, z-score of dpERK with insulin -0.48. CG7694 scored replicate 1, z-score of dpERK with insulin 0.12; replicate 2, z-score of dpERK with insulin -1.1. With knock-down of CG6429, the record shows replicate 1, z-score of dpERK with insulin 3.9; replicate 2, z-score of dpERK with insulin 0.95. MED27 (Mediator complex subunit 27) gave replicate 1, z-score of dpERK with insulin 0.68; replicate 2, z-score of dpERK with insulin -0.16. After knock-down of fs(2)ltoPP43 (female sterile (2) ltoPP43), the record shows replicate 1, z-score of dpERK with insulin -0.36; replicate 2, z-score of dpERK with insulin -1.41.

Knock-down of CG3918 gave: replicate 1, z-score of dpERK with insulin -2.64; replicate 2, z-score of dpERK with insulin -1.86. CG17059 showed replicate 1, z-score of dpERK with insulin -0.84; replicate 2, z-score of dpERK with insulin 0.43. For CG32280, the values are replicate 1, z-score of dpERK with insulin 0.04; replicate 2, z-score of dpERK with insulin 0.3. CG14662 + asRNA:CR43478 showed replicate 1, z-score of dpERK with insulin 0.31; replicate 2, z-score of dpERK with insulin -0.07. After knock-down of Gr10a (Gustatory receptor 10a) #1 the results were replicate 1, z-score of dpERK with insulin 1.4; replicate 2, z-score of dpERK with insulin 2.14. With knock-down of Gr10a (Gustatory receptor 10a) #2, the record shows replicate 1, z-score of dpERK with insulin 0.25; replicate 2, z-score of dpERK with insulin -0.01.

With knock-down of CG11808, the record shows replicate 1, z-score of dpERK with insulin -0.1; replicate 2, z-score of dpERK with insulin 1.71. For Hrd3 (HMG-coA reductase degradation 3), the entry reads replicate 1, z-score of dpERK with insulin 1.93; replicate 2, z-score of dpERK with insulin 0.84. BaraB (Baramicin B) scored replicate 1, z-score of dpERK with insulin -0.2; replicate 2, z-score of dpERK with insulin -0.22. Depletion of CG33269 gave: replicate 1, z-score of dpERK with insulin -1.51; replicate 2, z-score of dpERK with insulin -1.77. CG15880 showed replicate 1, z-score of dpERK with insulin -0.01; replicate 2, z-score of dpERK with insulin 0.03. Silencing of dsf (dissatisfaction) gave: replicate 1, z-score of dpERK with insulin -1.94; replicate 2, z-score of dpERK with insulin -2.06.

CG1603 scored replicate 1, z-score of dpERK with insulin 1.09; replicate 2, z-score of dpERK with insulin 0.04. Knock-down of Setd3 (SET domain containing 3) #1 resulted in: replicate 1, z-score of dpERK with insulin -0.37; replicate 2, z-score of dpERK with insulin -1.27. Setd3 (SET domain containing 3) #2 gave replicate 1, z-score of dpERK with insulin -0.08; replicate 2, z-score of dpERK with insulin -0.15.
